Laboratory results from patent US6589750B2, “Therapeutic use of the SMR1 protein, the SMR1 maturation products, specifically the QHNPR pentapeptide as well as its biologically active derivatives” (Institut Pasteur, priority 1997, dated 2003).

Test: Endogenous pentapeptide bloodstream secretion in conscious adult male rats (RIA of plasma)
Assay type: in vivo, rat

Substance: QHNPR (tritiated proline; pyroglutamate/Gln1) [pentapeptide, final secretory maturation product of SMR1; used tritiated as (Glp1/Gln1)-His-Asn-(3,4 3H)Pro-Arg]
- basal plasma pentapeptide-immunoreactive level (10 week-old male rats, n=5): 1.9 ± 0.2 ng/mL
- physiological range of circulating pentapeptide (conscious adult male rats): 1-7 ng/ml
- plasma peptide-immunoreactive response (conscious male rats, 20-40 min post-injection of phenylephrine and isoproterenol, n=4): 12.5 ± 5.4 ng/mL
- immunoreactive pentapeptide circulating level (conscious rats, acute ether stress, n=4): 7.0 ± 4.1 ng/mL
- immunoreactive peptide fraction corresponding to free pentapeptide (plasma under pharmacological or acute stress-induced conditions, cation-exchange HPLC, n=6): 56±21%
